Assay results as given in paper PMC3322156.
These are yes or no findings as the source states them, for the method shown. Binding seen in cells or lysates may run through a third protein. Here binding means that the protein was enriched with, or labelled near, the bait; the list need not be complete.

Sequences of proteins named here, by UniProt entry; tags and fusion partners are left off. A change or cut given only in a name is not applied to a line headed by its entry.
UniProt Q9CQJ4: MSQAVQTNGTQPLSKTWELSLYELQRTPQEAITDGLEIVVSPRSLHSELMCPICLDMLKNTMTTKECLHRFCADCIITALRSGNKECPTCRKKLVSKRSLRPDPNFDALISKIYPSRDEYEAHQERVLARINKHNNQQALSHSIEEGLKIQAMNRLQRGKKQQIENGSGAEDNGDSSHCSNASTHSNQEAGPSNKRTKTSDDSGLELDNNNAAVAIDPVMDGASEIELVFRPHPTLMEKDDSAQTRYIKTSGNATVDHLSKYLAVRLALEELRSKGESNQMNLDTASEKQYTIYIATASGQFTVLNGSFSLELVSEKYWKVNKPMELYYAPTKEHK

How the values were obtained:
[1] = molecular target: Ring1B (mouse (endogenous in ESCs)) (UniProt Q9CQJ4); assay: affinity purification with mass spectrometry; IP with anti-Ring1B (MBL, D139-3) from 400 ug ESC nuclear extract (WT cells, or Ring1B-/- cells rescued with Ring1BI53A), Protein G Sepharose 2 h at 4 C, washes BC300 (300 mM NaCl, 0.05% NP40) and BC100; 4-20% SDS-PAGE, bands cut, nLC-ESI-MS/MS; peptides also in the control IgG lane discarded; IgG heavy and light chain bands omitted
[2] = molecular target: Ring1BI53A (UniProt Q9CQJ4); assay: as above

| Binder | binding [1] | binding [2] |
| --- | --- | --- |
| Cbx4 (protein, UniProt O55187 1-551) MELPAVGEHVFAVESIEKKRIRKGRVEYLVKWRGWSPKYNTWEPEENILDPRLLIAFQNRERQEQLMGYRKRGPKPKPLVVQVPTFARRSNVLTGLQDSSADNRAKLELGTQGKGQGHQYELNSKKHHQYQPHSKERSGKPPPPGKSGKYYYQLNSKKHHPYQPDPKMYDLQYQGGHKEAPSPTCPDLGTKSHPPDKWAHGAAAKGYLGAVKPLGGGAGAPGKGSEKGPPNGMTPAPKEAVTGNGIGGKMKIVKNKNKNGRIVIVMSKYMENGMQAVKIKSGEAAEGEARSPSHKKRAAEERHPQGDRTFKKAAGASEEKKAEVPCKRREEEALVSGDAQPQDLGSRKLSPTKEAFGEQPLQLTTKPDLLAWDPARSSHPPAHHHHHHHHHHHHHTVGLNLSHARKRCLSETHGEREPCKKRLTARSISTPTCLGGSPVSEHPANVSPTAASLPQPEVILLDSDLDEPIDLRCVKMRSDAGEPPSTLQVKPEAPAVAAVVAPAPASEKPPAEAQEEPVEPLSEFKPFFGNIIITDVTANCLTVTFKEYVTV | binds | binds |
| Ogt (enzyme, UniProt Q8CGY8 1-1046) MASSVGNVADSTEPTKRMLSFQGLAELAHREYQAGDFEAAERHCMQLWRQEPDNTGVLLLLSSIHFQCRRLDRSAHFSTLAIKQNPLLAEAYSNLGNVYKERGQLQEAIEHYRHALRLKPDFIDGYINLAAALVAAGDMEGAVQAYVSALQYNPDLYCVRSDLGNLLKALGRLEEAKACYLKAIETQPNFAVAWSNLGCVFNAQGEIWLAIHHFEKAVTLDPNFLDAYINLGNVLKEARIFDRAVAAYLRALSLSPNHAVVHGNLACVYYEQGLIDLAIDTYRRAIELQPHFPDAYCNLANALKEKGSVAEAEDCYNTALRLCPTHADSLNNLANIKREQGNIEEAVRLYRKALEVFPEFAAAHSNLASVLQQQGKLQEALMHYKEAIRISPTFADAYSNMGNTLKEMQDVQGALQCYTRAIQINPAFADAHSNLASIHKDSGNIPEAIASYRTALKLKPDFPDAYCNLAHCLQIVCDWTDYDERMKKLVSIVAEQLEKNRLPSVHPHHSMLYPLSHGFRKAIAERHGNLCLDKINVLHKPPYEHPKDLKLSDGRLRVGYVSSDFGNHPTSHLMQSIPGMHNPDKFEVFCYALSPDDGTNFRVKVMAEANHFIDLSQIPCNGKAADRIHQDGIHILVNMNGYTKGARNELFALRPAPIQAMWLGYPGTSGALFMDYIITDQETSPAEVAEQYSEKLAYMPHTFFIGDHANMFPHLKKKAVIDFKSNGHIYDNRIVLNGIDLKAFLDSLPDVKIVKMKCPDGGDNPDSSNTALNMPVIPMNTIAEAVIEMINRGQIQITINGFSISNGLATTQINNKAATGEEVPRTIIVTTRSQYGLPEDAIVYCNFNQLYKIDPSTLQMWANILKRVPNSVLWLLRFPAVGEPNIQQYAQNMGLPQNRIIFSPVAPKEEHVRRGQLADVCLDTPLCNGHTTGMDVLWAGTPMVTMPGETLASRVAASQLTCLGCLELIAKSRQEYEDIAVKLGTDLEYLKKIRGKVWKQRISSPLFNTKQYTMELERLYLQMWEHYAAGNKPDHMIKPVEVTESA | binds | binds |
| Phc2 (protein, UniProt Q9QWH1 1-850) MENELPVPHTSNRASVTTNTSGTNSSSGCISSSGGGGGSGGRPTAPQISVYSGIPDRQTVQVIQQALHRQPSTAAQYLQQMYAAQQQHLMLQTAALQQQHLSSAQLQSLAAVQQASLVANRQGSTPGSSVSSQAPAQSSSLNLAASPAAAQLINRAQSVNSAAASGLAQQAVLLGNTSSPALTASQAQMYLRAQMLIFTPTATVATVQPELCTGSPARPPTPAQVQNLTLRTQQTPAAAASGPPPTQPVLPSLALKPTPSSSQPLPAPPQGRTMAQGSPAGAKPSGTDNAPETLKAGDGNCNMEGRPGPGRAVPAVATHPLIAPAYAHLQSHQLLPQPPAKHPQPQFVAQQQPQPPRPAPQVQSQPQLASVSPSLALQSSPEDHALPLGSVTQALPLQCSTTHVHKPGNSQQCHLPTLDTGSQNGHPEGGSHPPQRRFQHTSAVILQVQPASPVTPQQCAPDDWKEVVPAEKSVPVARPGPSPHQQAIIPAIPGGLPGPKSPNIQQCPAHETGQGIVHALTDLSSPGMTSGNGNSASSIAGTAPQNGENKPPQAIVKPQILTHVIEGFVIQEGAEPFPVGRSSLLVGNLKKKYAQGFLPEKPPQQDHTTTTDSEMEEPYLQESKEEGTPLKLKCELCGRVDFAYKFKRSKRFCSMACAKRYNVGCTKRVGLFHSDRSKLQKAGTTTHNRRRASKASLPTLTKDTKKQPSGTVPLSVTAALQLAHSQEDSSRCSDNSSYEEPLSPISASSSTSRRRQGQRDLDLPDMHMRDLVGVGHHFLPSEPTKWNVEDVYEFIRSLPGCQEIAEEFRAQEIDGQALLLLKEDHLMSAMNIKLGPALKIYARISMLKDS | binds | binds |
| lysine demethylase Fbxl10 (enzyme, UniProt Q6P1G2 1-1309) MEAEKDSGRRLRAIDRQRYDENEDLSDVEEIVSVRGFSLEEKLRSQLYQGDFVHAMEGKDFNYEYVQREALRVPLVFRDKDGLGIKMPDPDFTVRDVKLLVGSRRLVDVMDVNTQKGTEMSMSQFVRYYETPEAQRDKLYNVISLEFSHTKLEHLVKRPTVVDLVDWVDNMWPQHLKEKQTEATNALAEMKYPKVKKYCLMSVKGCFTDFHIDFGGTSVWYHVFRGGKIFWLIPPTLHNLALYEEWVLSGKQSDIFLGDRVERCQRIELKQGYTFFIPSGWIHAVYTPVDSLVFGGNILHSFNVPMQLRIYEIEDRTRVQPKFRYPFYYEMCWYVLERYVYCVTQRSYLTQEYQRELMLIDAPRKTSVDGFSSDSWLDMEEESCEQQPQEEEEEEEDKEEEGDGADKTPKPPTDDPTSPTSTPPEDQDSTGKKPKAPAIRFLKRTLSNESEESVKSTSMPTDDPKTPTGSPATEVSTKWTHLTEFELKGLKALVEKLESLPENKKCVPEGIEDPQALLEGVKNVLKEHVDDDPTLAITGVPVVSWPKKTAKNRVVGRPKGKLGPASAVKLAANRTTAGARRRRTRCRKCEACLRTECGECHFCKDMKKFGGPGRMKQSCIMRQCIAPVLPHTAVCLVCGEAGKEDTVEEEEGKFNLMLMECSICNEIIHPGCLKIKESEGVVNDELPNCWECPKCNHAGKTGKQKRGPGFKYASNLPGSLLKEQKMNRDNKEGQEPAKRRSECEEAPRRRSDEHPKKVPADGILRRKSDDVHLRRKRKYEKPQELSGRKRASSLQTSPGSSSHLSPRPPLGSSLSPWWRSSLTYFQQQLKPGKEDKLFRKKRRSWKNAEDRLSLANKPLRRFKQEPEDDLPEAPPKTRESDQSRSSSPTAGPSTEGAEGPEEKKKVKMRRKRRLVNKELSKELSKELNHEIQKTESTLAHESQQPIKSEPESENDEPKRPLSHCERPHRFSKGLNGTPRELRHSLGPGLRSPPRVMSRPPPSASPPKCIQMERHVIRPPPISPPPDSLPLDDGAAHVMHREVWMAVFSYLSHRDLCVCMRVCRTWNRWCCDKRLWTRIDLNRCKSITPLMLSGIIRRQPVSLDLSWTNISKKQLSWLINRLPGLRDLVLSGCSWIAVSALCSSSCPLLRTLDVQWVEGLKDAQMRDLLSPPTDNRPGQMDNRSKLRNIVELRLAGLDITDVSLRLIIRHMPLLSKLQLSYCNHINDQSINLLTAVGTTTRDSLTEVNLSDCNKVTDLCLSFFKRCGNICHIDLRYCKQVTKEGCEQFIAEMSVSVQFGQVEEKLLQKLS | binds | binds |

Next, values leading:

| binding [1] | binding [2] | Binder |
| --- | --- | --- |
| binds | binds | Phc1 (protein, UniProt Q64028 1-1010) METESEQNSSSTNGSSSSGASSRPQIAQMSLYERQAVQALQALQRQPNAAQYFHQFMLQQQLSNAQLHSLAAVQQATIAASRQASSPNSSTAQQQTATTQASMNLATTSAAQLISRSQSVSSPSATTLTQSVLLGNTTSPPLNQSQAQMYLRPQLGNLLQVNRTLGRNVPLASQLILMPNGAVAAVQQEVPPAQSPGVHADADQVQNLAVRNQQASAQGPQMPGSTQKAIPPGASPVSGLSQTSSQALAVAQASSGASGQSLNLSQAGGGSGNSLPGSMGPGGGGQAPGGLGQLPSSGLTGGSCPRKGTGVVQPLPAAQTVTVSQGSQTEAESAAAKKAEADGSGQQSVGMNLTRTATPAPSQTLISSATYTQIQPHSLIQQQQQIHLQQKQVVIQQQIAIHHQQQFQHRQSQLLHTATHLQLAQQQQQQQQQQQQQQQQQQQQQQGTTLTAPQPPQVPPTQQVPPSQSQQQAQTLVVQPMLQSSPLTLPPEPTSKPPIPIQSKPPVAPIKPPQLGAAKMSATQQPPPHIPVQVVGTRQPGSAQAQALGLAQLAAAVPTPRGITGAVQPGQAHLASSPPSSQAAPGALQECPPALAAGMTLAPVQGTAHVVKGGPTASSPVVAQVPAAFYMQSVHLPGKAQTLAVKRKAESEEERDDLSALASVLPTKASPAAESPKVIEEKNSLGEKAEPVASLNANPPNSDLVALAPTPSAPPPTLALVSRQMGDSKPPQAIVKPQILTHIIEGFVIQEGAEPFPVGCSQFLKETKKPLQAGLPTGLNESQPSGPLGGDSPSVELEKKANLLKCEYCGKYAPAEQFRGSKRFCSMTCAKRYNVSCSHQFRLKRKKMKEFQEASYARVRRRGPRRSSSDIARAKIQGKRHRGQEDSSRGSDNSSYDEALSPTSPGPLSVRAGHGERDLGNTITTPSTPELQGINPVFLSSNPSQWSVEEVYEFIASLQGCQEIAEEFRSQEIDGQALLLLKEEHLMSAMNIKLGPALKICAKINVLKET |
| binds | binds | L3mbtl3 (protein, UniProt Q8BLB7 1-883) MTESASSTSGQEFDVFSVMDWKDGVGTLPGSDLKFRVNEFGALEVITDESEMESVKKATATTTWMVPTAQDAPTSPPSSRPVFPPAYWTSPPGCPTVFSEKTGVPFRLKEQSKADGLQFCENCCQYGNGDECLSGGKYCSQNCARHAKDKDQKDERDGGEDNDEEDPKCSRKKKPKLSLKADSKDDGEERDDEMENKQDGRILRGSQRARRKRRGDSAVLKQGLPPKGKKTWCWASYLEEEKAVAVPTKLFKEHQSFPYNKNGFKVGMKLEGVDPDHQAMYCVLTVAEVCGYRIKLHFDGYSDCYDFWVNADALDIHPVGWCEKTGHKLRPPKGYKEEEFNWQSYLKTCKAQAAPKSLFENQNITVIPSGFRVGMKLEAADKKSPSVICVATVTDMVDNRFLVHFDNWDESYDYWCESNSPHIHPVGWCKEHRRTLITPPGYSHVKHFSWDKYLEETNSLPAPARAFKVKPPHGFQKKMKLEAVDKRNPLFIRVATVADTDDHRIKVHFDGWSSCYDYWIDADSPDIHPVGWCSKTGHPLQAPLSPAELMEPSETGGCPTLGCRGVGHFKKSRYLGTQSGANCPYSEINLSKERIFPDRLSGDTSPPTTPSFPRSKRMDTRESSSSPETREKHANNFKEDSEKKKENEVKTSAEAKVVREEPTPSVQQSQPPQQVQQVQHAQPPQQAQKAPQAQQAQQAQQAQQAPQAPQTPQPQQAPQVQQAQQAPQAQQAQQPQQAQQPQQAPPVQQPQQVQQAQPTQQQAQTQQQAQRRSAVFLSFKPPIPCLPLRWEQQSKLLPTVAGIPASRVSKWSTDEVSEFIQSLPGCEEHGKVFKDEQIDGEAFLLMTQTDIVKIMSIKLGPALKIFNSILMFKAAEKNSHNEL |
